Test results as given in publication PMC12173945, “Import mechanism of peroxisomal proteins with an N-terminal signal sequence” (Nature Cell Biology, 2025).

Protein sequences, listed by entry. Tags and fused reporters are not part of them. Lines headed by an entry give the natural chain unless they say otherwise; changes in a name come on top.
UniProt P47087: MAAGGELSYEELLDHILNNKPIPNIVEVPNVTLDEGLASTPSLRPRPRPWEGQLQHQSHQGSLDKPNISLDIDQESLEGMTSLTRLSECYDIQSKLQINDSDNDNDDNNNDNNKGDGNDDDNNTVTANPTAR
UniProt P27796: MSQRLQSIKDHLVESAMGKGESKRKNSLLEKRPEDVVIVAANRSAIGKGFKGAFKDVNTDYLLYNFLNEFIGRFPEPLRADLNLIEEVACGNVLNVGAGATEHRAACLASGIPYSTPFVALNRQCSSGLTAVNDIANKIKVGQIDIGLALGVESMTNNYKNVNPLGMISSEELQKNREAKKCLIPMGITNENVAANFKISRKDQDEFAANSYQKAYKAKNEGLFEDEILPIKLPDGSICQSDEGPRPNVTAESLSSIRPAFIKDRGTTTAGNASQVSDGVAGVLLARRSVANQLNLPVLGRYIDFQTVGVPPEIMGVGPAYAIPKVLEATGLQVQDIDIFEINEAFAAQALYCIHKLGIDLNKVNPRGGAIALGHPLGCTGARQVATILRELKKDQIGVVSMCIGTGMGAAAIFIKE

What was measured:
[1] = target: GST-tagged yeast PEX39 ∆APH (yeast) (UniProt P47087); experiment: bead-binding assay (fluorescence on beads by spinning-disk confocal microscopy); glutathione beads incubated overnight with 5 µM GST–PEX39 (wild type or mutants), 5 µM yeast PEX7 and 1 µM PTS2–GFP; both purified
[2] = target: GST-tagged yeast PEX39 ∆APH (yeast) (UniProt P47087); experiment: bead-binding assay (fluorescence on beads by spinning-disk confocal microscopy); GST-tagged protein on glutathione beads; GFP-fused partner in solution (1 µM each in Extended Data Fig. 9a); 1 h, RT; both purified
[3] = target: GST-tagged yeast PEX39 ∆APH (yeast) (UniProt P47087); experiment: pull-down; quantitative: glutathione agarose with 1 µM yeast PEX7 and varying concentrations of GST-tagged PEX39 variants, Assay Buffer, 25 °C, 1 h; beads sedimented, PEX7 left in the supernatant quantified by SDS–PAGE and Coomassie; observed binding constants (Kobs); both purified
[4] = target: GST-tagged yeast PEX39 ∆RPWE (yeast) (UniProt P47087); experiment: as above
[5] = target: GST-tagged yeast PEX39 ∆APH (yeast) (UniProt P47087); experiment: pull-down; competition: glutathione beads with yeast PEX7 and GST-tagged PEX39 ∆APH (each 1 µM), 30 min at 25 °C, then varying concentrations of peptide for 1 h; beads sedimented, supernatant on SDS–PAGE with Coomassie; competitive-binding isotherm, observed binding constants (Kobs); both purified

For “GFP fused at the N terminus to the PTS2 signal (residues 1–27) from yeast POT1 (PTS2–GFP) (from UniProt P27796) (domain or fragment)”, the binding [1] was “no binding (tested: 1 µM)”.

B1: yeast PEX7 fused at the C terminus to GFP (PEX7–GFP) (protein, UniProt P39108 1-375)
chain: MLRYHMQGFSGYGVQYSPFFDNRLAVAAGSNFGLVGNGKLFILEIDRSGRIVEVNSFLTQDCLFDLAWNESHENQVLVAQGDGTLRLFDTTFKEFPIAIFKEHEREVFSCNWNLVNRQNFLSSSWDGSIKIWSPLRKQSLMTLTPRPLEITKMVDPLNAIILKKKSFTGISKNRNCVYQAQFSPHDQNLVLSCSGNSYASLFDIRLPSGKNQNNFLVHSGLEALTCDFNKYRPYVVATGGVDNAIRIWDIRMLNKNESATIKRTVPGQLHNSSCINEIPNAHGLAIRKVTWSPHHSNILMSASYDMTCRIWRDLSNDGAKETYKTNSTDATKGSIFNFTQHSEFVFGADWSLWGKPGYVASTAWDGNLFVWNGLG
With B1 the binding [2] was “binds”.

B2: yeast PEX7 (protein, UniProt P39108 1-375)
chain: MLRYHMQGFSGYGVQYSPFFDNRLAVAAGSNFGLVGNGKLFILEIDRSGRIVEVNSFLTQDCLFDLAWNESHENQVLVAQGDGTLRLFDTTFKEFPIAIFKEHEREVFSCNWNLVNRQNFLSSSWDGSIKIWSPLRKQSLMTLTPRPLEITKMVDPLNAIILKKKSFTGISKNRNCVYQAQFSPHDQNLVLSCSGNSYASLFDIRLPSGKNQNNFLVHSGLEALTCDFNKYRPYVVATGGVDNAIRIWDIRMLNKNESATIKRTVPGQLHNSSCINEIPNAHGLAIRKVTWSPHHSNILMSASYDMTCRIWRDLSNDGAKETYKTNSTDATKGSIFNFTQHSEFVFGADWSLWGKPGYVASTAWDGNLFVWNGLG
B2 was tested, and the binding [3] was “binds”, the binding [4] was “binds” and the binding [5] was “binds”.

These are yes or no findings as the source states them, for the method shown. For some assays here: Binding can be weak; no strength is given. For some assays here: Sequences can lack the tags named with a protein.
